These are yes or no findings as the source states them, for the method shown. Some binding calls cover weakened binding; strength is not graded here. For part of these data: Where a sequence is shown, tags or fusion partners need not be part of it.
T1: human FAS-R (full receptor expressed in HeLa cells) (human), P25445
T1 chain: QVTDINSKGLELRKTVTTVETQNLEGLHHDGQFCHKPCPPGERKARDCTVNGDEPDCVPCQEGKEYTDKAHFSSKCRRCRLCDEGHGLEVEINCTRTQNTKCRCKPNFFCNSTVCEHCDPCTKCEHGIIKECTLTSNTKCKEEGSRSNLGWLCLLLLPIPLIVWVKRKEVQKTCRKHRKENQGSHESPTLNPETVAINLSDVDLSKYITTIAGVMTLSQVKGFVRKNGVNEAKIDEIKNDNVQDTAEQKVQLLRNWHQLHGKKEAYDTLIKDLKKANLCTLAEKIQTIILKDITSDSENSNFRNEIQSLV

T2: MORT-1 (FADD), human, full-length (human), Q13158
T2 chain: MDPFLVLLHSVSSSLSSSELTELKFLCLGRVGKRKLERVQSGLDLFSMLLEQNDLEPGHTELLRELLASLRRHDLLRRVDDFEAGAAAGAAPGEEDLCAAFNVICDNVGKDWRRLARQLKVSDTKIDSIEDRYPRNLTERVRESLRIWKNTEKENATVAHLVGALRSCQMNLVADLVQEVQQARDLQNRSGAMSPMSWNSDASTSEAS


Tests used:
Conditions in all cases: remark: other sources report otherwise
[1] = molecular target: T1, human FAS-R (full receptor expressed in …); experiment: cross immunoprecipitation from co-transfected, 35S-labeled HeLa cells
[2] = molecular target: T2, MORT-1 (FADD), human, full-length …; experiment: yeast two-hybrid beta-galactosidase test
[3] = molecular target: T2, MORT-1 (FADD), human, full-length …; experiment: yeast two-hybrid screen of a human B cell library with MORT-1 as bait

binding [1]	binding [2]	binding [3]	Binder
binds	–	–	FLAG-MORT-1, Q13158 1-208 (protein, UniProt Q13158 1-208, looked up, not shown: small tags and cut ends) MDPFLVLLHSVSSSLSSSELTELKFLCLGRVGKRKLERVQSGLDLFSMLLEQNDLEPGHTELLRELLASLRRHDLLRRVDDFEAGAAAGAAPGEEDLCAAFNVICDNVGKDWRRLARQLKVSDTKIDSIEDRYPRNLTERVRESLRIWKNTEKENATVAHLVGALRSCQMNLVADLVQEVQQARDLQNRSGAMSPMSWNSDASTSEAS
–	binds	binds	MORT-1 (FADD), human, full-length, Q13158 1-208 (protein, UniProt Q13158 1-208, looked up) MDPFLVLLHSVSSSLSSSELTELKFLCLGRVGKRKLERVQSGLDLFSMLLEQNDLEPGHTELLRELLASLRRHDLLRRVDDFEAGAAAGAAPGEEDLCAAFNVICDNVGKDWRRLARQLKVSDTKIDSIEDRYPRNLTERVRESLRIWKNTEKENATVAHLVGALRSCQMNLVADLVQEVQQARDLQNRSGAMSPMSWNSDASTSEAS
